Test results as given in article PMC7895558, “Antiprotozoal Compounds from Urolepis hecatantha (Asteraceae)” (Evidence-based Complementary and Alternative Medicine : eCAM, 2021).

test system: Trypanosoma cruzi epimastigotes (Tulahuen 2 strain); experiment: in vitro anti-Trypanosoma cruzi activity (epimastigote growth, absorbance 600 nm); assay type: cell-based; conditions: macrophage CC50 versus T. cruzi epimastigote IC50
Experimental: For the anti-Trypanosoma and anti-Leishmania activity assays, we followed the methods described by Aguilera et al., 2019 [15].
For the in vitro anti-Trypanosoma cruzi activity, epimastigotes of the Tulahuen 2 strain (genotype TcVI) grown in an axenic medium (BHI-Tryptose) were used. Cells from a 5–7-day-old culture were inoculated in a fresh culture medium to give an initial concentration of 10^6 cells/mL. The absorbance at 600 nm of the cells in culture was measured every day. On day five, the medium was inoculated with different doses of the compounds (25–0.05 µM) from a stock solution in dimethylsulfoxide (DMSO) (DMSO concentration in the culture medium never exceeded 0.4%). Control parasites were cultivated in medium with 0.4% DMSO v/v. Benznidazole was used as a positive control. At five days, the absorbance of the culture was measured and compared to the control and the IC50 values were calculated for each compound using OriginLab 8.5® sigmoidal regression. Each experiment was done in duplicate, and each concentration was tested in triplicate.

Structure (SMILES)	selectivity index (SI) on T. cruzi
C=C(C)c1cc2cc(C(C)=O)c(O)cc2o1 [compound 1, euparin]	did not display selectivity
COc1cc(-c2oc3cc(O)c(OC)c(O)c3c(=O)c2OC)ccc1O [compound 2, jaceidin]	did not display selectivity
C=C1C(=O)O[C@@H]2/C=C(\C)[C@@H](O)C/C=C(\C)C[C@@H](OC(=O)/C(=C/CO)COC(C)=O)[C@@H]12 [compound 3, santhemoidin C]	did not display selectivity

Some compounds share one wording; it may come from a single statement.
